Results are given in words; binding and its absence hold for the method and conditions named. In cells and extracts the contact can be indirect. Binding calls can cover weak binding; strength is not graded here.
Target: FAM19A5 in human cerebrospinal fluid (human (endogenous in CSF)) (UniProt Q7Z5A7)
Assay: co-IP; pooled normal human CSF; precipitated with monoclonal anti-FAM19A5 antibodies (C-A5-Ab or N-A5-Ab), blotted for LRRC4B and FAM19A5

Amino acid sequences for entries named in this document (tags omitted). A change or cut given only in a name is not applied to a line headed by its entry. Residues count along the entry.
UniProt Q7Z5A7, residues 44-132: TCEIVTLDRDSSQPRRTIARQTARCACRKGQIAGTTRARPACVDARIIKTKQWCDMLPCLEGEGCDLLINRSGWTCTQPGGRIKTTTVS
UniProt Q9NT99: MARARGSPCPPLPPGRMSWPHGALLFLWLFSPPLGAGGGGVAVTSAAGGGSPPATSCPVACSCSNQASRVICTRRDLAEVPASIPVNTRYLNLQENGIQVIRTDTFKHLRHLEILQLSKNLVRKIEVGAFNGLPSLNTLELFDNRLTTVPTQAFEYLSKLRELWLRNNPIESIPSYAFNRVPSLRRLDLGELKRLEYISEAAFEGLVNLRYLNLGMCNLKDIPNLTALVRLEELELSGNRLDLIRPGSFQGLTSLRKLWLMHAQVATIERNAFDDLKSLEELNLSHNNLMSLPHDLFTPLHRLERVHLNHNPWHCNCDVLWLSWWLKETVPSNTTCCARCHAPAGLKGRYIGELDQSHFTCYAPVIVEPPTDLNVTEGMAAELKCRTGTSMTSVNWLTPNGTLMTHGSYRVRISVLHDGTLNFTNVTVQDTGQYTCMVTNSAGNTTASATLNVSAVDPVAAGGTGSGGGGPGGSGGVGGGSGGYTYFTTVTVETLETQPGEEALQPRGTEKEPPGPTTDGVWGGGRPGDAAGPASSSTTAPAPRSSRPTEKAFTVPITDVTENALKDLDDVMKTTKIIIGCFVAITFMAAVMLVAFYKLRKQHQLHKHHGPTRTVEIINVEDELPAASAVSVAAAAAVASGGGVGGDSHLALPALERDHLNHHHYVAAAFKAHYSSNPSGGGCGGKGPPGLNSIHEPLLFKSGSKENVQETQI

- binding: binds
Substance: LRRC4B (leucine-rich repeat-containing protein 4B) in human cerebrospinal fluid (from UniProt Q9NT99)

— publication PMC12281766, “Inhibition of FAM19A5 reverses synaptic loss and cognitive decline in mouse models of Alzheimer’s disease” (Alzheimer's Research & Therapy, 2025)
